Measurements published in patent US20080050378A1.
These are yes or no findings as the source states them, for the method shown. In cells and extracts the contact can be indirect. Some entries that bind do so weakly or less than the wild type.

Sequences of proteins named here, by UniProt entry; tags and fusion partners are left off. A change or cut given only in a name is not applied to a line headed by its entry.
UniProt P52732: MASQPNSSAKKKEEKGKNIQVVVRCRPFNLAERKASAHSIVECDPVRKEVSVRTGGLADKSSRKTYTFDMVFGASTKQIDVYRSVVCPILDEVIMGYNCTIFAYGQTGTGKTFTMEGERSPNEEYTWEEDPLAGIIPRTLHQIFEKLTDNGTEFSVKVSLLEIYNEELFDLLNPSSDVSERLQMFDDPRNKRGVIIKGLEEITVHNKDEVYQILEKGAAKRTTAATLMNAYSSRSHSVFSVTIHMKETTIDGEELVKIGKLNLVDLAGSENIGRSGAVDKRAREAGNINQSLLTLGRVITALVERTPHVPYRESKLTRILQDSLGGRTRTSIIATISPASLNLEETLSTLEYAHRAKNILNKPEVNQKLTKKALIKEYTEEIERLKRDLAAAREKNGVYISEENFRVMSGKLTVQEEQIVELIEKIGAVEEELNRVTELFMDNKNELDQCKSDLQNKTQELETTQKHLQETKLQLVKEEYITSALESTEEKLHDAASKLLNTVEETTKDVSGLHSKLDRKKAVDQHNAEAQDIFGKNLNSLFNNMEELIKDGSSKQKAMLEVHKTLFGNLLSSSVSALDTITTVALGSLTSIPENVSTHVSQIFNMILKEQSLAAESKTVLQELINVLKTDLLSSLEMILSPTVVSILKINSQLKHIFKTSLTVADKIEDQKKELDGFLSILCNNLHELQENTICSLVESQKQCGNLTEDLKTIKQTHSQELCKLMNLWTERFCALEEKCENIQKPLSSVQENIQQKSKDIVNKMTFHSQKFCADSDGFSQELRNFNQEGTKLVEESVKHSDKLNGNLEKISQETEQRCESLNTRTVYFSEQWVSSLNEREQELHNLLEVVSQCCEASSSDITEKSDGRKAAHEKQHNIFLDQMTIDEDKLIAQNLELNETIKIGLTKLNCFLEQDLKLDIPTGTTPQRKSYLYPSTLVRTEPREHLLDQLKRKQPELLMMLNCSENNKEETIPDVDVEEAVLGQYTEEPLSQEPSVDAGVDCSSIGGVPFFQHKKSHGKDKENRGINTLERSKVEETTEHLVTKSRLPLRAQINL
UniProt O00425: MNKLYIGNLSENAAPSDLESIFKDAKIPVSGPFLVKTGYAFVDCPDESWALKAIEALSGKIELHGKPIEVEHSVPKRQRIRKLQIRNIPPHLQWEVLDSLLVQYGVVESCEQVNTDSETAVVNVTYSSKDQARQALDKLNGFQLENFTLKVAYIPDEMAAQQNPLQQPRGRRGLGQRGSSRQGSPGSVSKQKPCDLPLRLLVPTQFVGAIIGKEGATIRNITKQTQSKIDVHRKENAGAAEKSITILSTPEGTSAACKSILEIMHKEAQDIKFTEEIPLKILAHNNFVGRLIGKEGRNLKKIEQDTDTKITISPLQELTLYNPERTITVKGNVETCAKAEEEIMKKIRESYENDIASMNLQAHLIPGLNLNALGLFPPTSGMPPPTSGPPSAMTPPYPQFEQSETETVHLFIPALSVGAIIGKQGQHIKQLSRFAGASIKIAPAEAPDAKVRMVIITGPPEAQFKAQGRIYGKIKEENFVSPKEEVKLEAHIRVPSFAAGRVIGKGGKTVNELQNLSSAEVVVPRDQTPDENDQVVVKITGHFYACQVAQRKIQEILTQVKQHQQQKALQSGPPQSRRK

Key:
[1] = target: Flag-tagged KIF11 (human) (UniProt P52732); test: reciprocal co-immunoprecipitation and immunoblot, co-transfected A549 cells (FIG. 1a)
[2] = target: Flag-tagged KIF11 (human) (UniProt P52732); test: reciprocal co-immunoprecipitation (anti-Flag M2 agarose / anti-myc agarose) and immunoblot, co-transfected A549 cells

**Q.** Which results are given for “myc-tagged KOC1 (from UniProt O00425 1-579)”?
**A.** binding [1]: binds; binding [2]: binds
